Patent publication US20110091952A1
These are yes or no findings as the source states them, for the method shown. Some binding calls cover weakened binding; strength is not graded here. Sequences can lack the tags named with a protein.

Biological target: CurM TE, C-terminal His-tagged single domain construct (pET24b::TE) (Lyngbya majuscula)
Experiment: analytical size-exclusion chromatography (self-association, homodimer)

binding: binds
B1: CurM TE, C-terminal His-tagged single domain construct (pET24b::TE) (enzyme, not shown: small tags and cut ends)
chain: MEEKFLEFGGNQICLCSWGSPEHPVVLCIHGILEQGLAWQEVALPLAAQGYRVVAPDLFGHGRSSHLEMVTSYSSLTFLAQIDRVIQELPDQPLLLVGHSMGAMLATAIASVRPKKIKELILVELPLPAEESKKESAVNQLTTCLDYLSSTPQHPIFPDVATAASRLRQAIPSLSEEFSYILAQRITQPNQGGVRWSWDAIIRTRSILGLNNLPGGRSQYLEMLKSIQVPTTLVYGDSSKLNRPEDLQQQKMTMTQAKRVFLSGGHNLHIDAAAALASLILTS
